The results in this text go back to publication PMC11919608.

Protein sequences, listed by entry. Tags and fused reporters are not part of them.
UniProt P32121: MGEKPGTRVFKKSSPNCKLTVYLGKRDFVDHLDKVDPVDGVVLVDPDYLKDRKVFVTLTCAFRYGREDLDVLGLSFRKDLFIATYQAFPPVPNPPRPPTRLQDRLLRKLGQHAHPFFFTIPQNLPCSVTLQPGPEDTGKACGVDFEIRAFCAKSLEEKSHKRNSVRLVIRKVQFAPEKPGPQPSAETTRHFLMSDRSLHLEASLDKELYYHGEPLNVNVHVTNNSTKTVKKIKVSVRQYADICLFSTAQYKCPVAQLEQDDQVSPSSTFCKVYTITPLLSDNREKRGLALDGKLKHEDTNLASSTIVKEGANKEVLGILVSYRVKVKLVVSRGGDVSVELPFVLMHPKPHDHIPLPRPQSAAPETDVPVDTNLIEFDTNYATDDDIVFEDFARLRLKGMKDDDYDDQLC
UniProt P25963: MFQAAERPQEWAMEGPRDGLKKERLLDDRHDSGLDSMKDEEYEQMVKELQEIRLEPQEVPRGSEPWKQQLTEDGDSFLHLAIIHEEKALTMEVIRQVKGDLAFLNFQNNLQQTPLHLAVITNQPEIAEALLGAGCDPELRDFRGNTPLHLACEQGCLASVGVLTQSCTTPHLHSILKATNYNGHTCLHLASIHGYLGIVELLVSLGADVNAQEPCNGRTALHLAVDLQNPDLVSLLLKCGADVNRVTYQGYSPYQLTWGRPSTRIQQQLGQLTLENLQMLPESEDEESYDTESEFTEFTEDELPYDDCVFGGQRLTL

In the assay the target is β-arrestin2 (human (endogenous in AGS)) (UniProt P32121). As to the kind of experiment: co-IP; AGS cell lysates incubated with antibodies overnight, then protein A/G-sepharose beads for 4 h, washed three times with ice-cold lysis buffer, immunoblot; cells with or without 3 μM erastin or 1 μM RSL3 for 24 h (Figure 4A); AGS.Vector and AGS.WTX-L cells (Figure 4B). Background: Immunoblotting shows a protein as a band on a membrane.

Results are given in words; binding and its absence hold for the method and conditions named. Binding seen in cells or lysates may run through a third protein. Some entries that bind do so weakly or less than the wild type.

On to IκBα (from UniProt P25963 1-317), for which the binding entry is “binds”.

B1: WTX-L (long, unspliced isoform of WTX; APC membrane recruitment protein 1) (protein, UniProt Q5JTC6 1-1135)
chain: METQKDEAAQAKGAAASGSTREQTAEKGAKNKAAEATEGPTSEPSSSGPGRLKKTAMKLFGGKKGICTLPSFFGGGRSKGSGKGSSKKGLSKSKTHDGLSEAAHGPEDVVSEGTGFSLPLPELPCQFPSSQSAHGALETGSRCKTSVAGATEKAVAEKFPSMPKPKKGLKGFFSSIRRHRKSKVTGAEQSEPGAKGPERVRARPHEHVSSAPQVPCFEETFQAPRKENANPQDAPGPKVSPTPEPSPPATEKMACKDPEKPMEACASAHVQPKPAPEASSLEEPHSPETGEKVVAGEVNPPNGPVGDPLSLLFGDVTSLKSFDSLTGCGDIIAEQDMDSMTDSMASGGQRANRDGTKRSSCLVTYQGGGEEMALPDDDDEEEEEEEEVELEEEEEEVKEEEEDDDLEYLWETAQMYPRPNMNLGYHPTTSPGHHGYMLLDPVRSYPGLAPGELLTPQSDQQESAPNSDEGYYDSTTPGFEDDSGEALGLVRRDCLPRDSYSGDALYEFYEPDDSLENSPPGDDCLYDLHGRSSEMFDPFLNFEPFLSSRPPGAMETEEERLVTIQKQLLYWELRREQLEAQEARAREAHAREAHAREAYTREAYGREAYAREAHTWEAHGREARTREAQAREVRCRETQVRETQARQEKPVLEYQMRPLGPSVMGLAAGVSGTSQISHRGITSAFPTTASSEPDWRDFRPLEKRYEGTCSKKDQSTCLMQLFQSDAMFEPDMQEANFGGSPRRAYPTYSPPEDPEEEEVEKEGNATVSFSQALVEFTSNGNLFSSMSCSSDSDSSFTQNLPELPPMVTFDIADVERDGEGKCEENPEFHNDEDLAASLEAFELGYYHKHAFNNYHSRFYQGLPWGVSSLPRYLGLPGLHPRPPPAAMALNRRSRSLDTAETLEMELSNSHLVQGYLESDELQAQQEDSDEEDEEEEEGEWSRDSPLSLYTEPPGAYDWPAWAPCPLPVGPGPAWISPNQLDRPSSQSPYRQATCCIPPMTMSISLSVPESRAPGESGPQLARPSHLHLPMGPCYNLQPQASQSMRARPRDVLLPVDEPSCSSSSGGFSPSPLPQAKPVGITHGIPQLPRVRPEHPQPQPTHYGPSSLDLSKERAEQGASLATSYSSTAMNGNLAK
Consider B1, for which the binding entry is “binds”.
